No constants are given. Whether binding was seen depends on the method and setting. In cells and extracts the contact can be indirect. Tags and fused reporters may be left off the sequences shown.
Target: T1, c-myc-tagged cytoplasmic loop of NCKX2, phosphomimetic mutant Y365E (rat) (UniProt O54701)
T1 sequence: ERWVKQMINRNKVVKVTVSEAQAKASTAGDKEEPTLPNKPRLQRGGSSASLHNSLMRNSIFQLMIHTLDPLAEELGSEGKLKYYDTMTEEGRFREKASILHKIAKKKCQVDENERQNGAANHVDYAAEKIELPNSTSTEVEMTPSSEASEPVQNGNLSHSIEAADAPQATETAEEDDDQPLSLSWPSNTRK
Experiment: co-IP; HEK293 cells co-transfected with HA-AP2M1 and myc-NCKX2-loop variants; lysate (50 mM Tris-Cl pH 7.4, 150 mM NaCl, 1 mM EDTA, 0.5% Triton X-100) incubated with anti-c-myc agarose overnight at 4°C; eluted with c-myc peptide; anti-HA blot, densitometry, n = 5

binding: no binding
B1: HA-tagged AP2M1 (μ subunit of adaptor protein complex 2) (natural protein, UniProt P84092 1-435, looked up)
chain: MIGGLFIYNHKGEVLISRVYRDDIGRNAVDAFRVNVIHARQQVRSPVTNIARTSFFHVKRSNIWLAAVTKQNVNAAMVFEFLYKMCDVMAAYFGKISEENIKNNFVLIYELLDEILDFGYPQNSETGALKTFITQQGIKSQHQTKEEQSQITSQVTGQIGWRREGIKYRRNELFLDVLESVNLLMSPQGQVLSAHVSGRVVMKSYLSGMPECKFGMNDKIVIEKQGKGTADETSKSGKQSIAIDDCTFHQCVRLSKFDSERSISFIPPDGEFELMRYRTTKDIILPFRVIPLVREVGRTKLEVKVVIKSNFKPSLLAQKIEVRIPTPLNTSGVQVICMKGKAKYKASENAIVWKIKRMAGMKESQISAEIELLPTNDKKKWARPPISMNFEVPFAPSGLKVRYLKVFEPKLNYSDHDVIKWVRYIGRSGIYETRC
notes: AP2M1, μ subunit of adaptor protein complex 2 (NM_053837.1; P84092), cloned into pcDNA3; gift from Dr. Ryan (Kim and Ryan, 2009); also called HA-AP2M1; μ subunit of AP-2; source: HEK293, transfected (calcium phosphate), in lysate

Source: article PMC3576620, “Endocytosis of somatodendritic NCKX2 is regulated by Src family kinase-dependent tyrosine phosphorylation” (Frontiers in Cellular Neuroscience, 2013)
